Measurements: the supplement of paper PMC10849652
This is one part of the list.

Amino acid sequences for entries named in this document (tags omitted). A change or cut given only in a name is not applied to a line headed by its entry.
UniProt Q96BQ5: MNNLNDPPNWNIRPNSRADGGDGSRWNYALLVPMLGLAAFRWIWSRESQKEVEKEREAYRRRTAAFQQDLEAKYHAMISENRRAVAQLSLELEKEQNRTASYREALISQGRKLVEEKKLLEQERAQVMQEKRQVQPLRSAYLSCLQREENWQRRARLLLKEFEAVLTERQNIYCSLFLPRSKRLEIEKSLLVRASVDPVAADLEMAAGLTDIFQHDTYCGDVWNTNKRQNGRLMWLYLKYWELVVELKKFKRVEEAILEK
UniProt P30279, whole entry, looked up: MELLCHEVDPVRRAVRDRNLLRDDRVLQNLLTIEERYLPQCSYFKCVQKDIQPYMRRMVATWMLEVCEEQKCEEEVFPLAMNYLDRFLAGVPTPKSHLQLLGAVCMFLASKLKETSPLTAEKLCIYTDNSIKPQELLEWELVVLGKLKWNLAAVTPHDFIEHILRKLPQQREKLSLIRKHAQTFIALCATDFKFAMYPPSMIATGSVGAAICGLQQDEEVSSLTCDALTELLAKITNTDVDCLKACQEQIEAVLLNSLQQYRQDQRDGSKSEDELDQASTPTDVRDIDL
UniProt P30281: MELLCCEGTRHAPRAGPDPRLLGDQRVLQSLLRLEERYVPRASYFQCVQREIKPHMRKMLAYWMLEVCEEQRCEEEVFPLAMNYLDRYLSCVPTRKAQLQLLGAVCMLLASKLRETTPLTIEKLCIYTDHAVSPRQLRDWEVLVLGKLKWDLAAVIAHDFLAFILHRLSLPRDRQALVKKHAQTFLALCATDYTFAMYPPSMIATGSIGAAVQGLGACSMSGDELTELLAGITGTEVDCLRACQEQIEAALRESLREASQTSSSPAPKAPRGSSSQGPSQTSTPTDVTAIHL
UniProt O60583: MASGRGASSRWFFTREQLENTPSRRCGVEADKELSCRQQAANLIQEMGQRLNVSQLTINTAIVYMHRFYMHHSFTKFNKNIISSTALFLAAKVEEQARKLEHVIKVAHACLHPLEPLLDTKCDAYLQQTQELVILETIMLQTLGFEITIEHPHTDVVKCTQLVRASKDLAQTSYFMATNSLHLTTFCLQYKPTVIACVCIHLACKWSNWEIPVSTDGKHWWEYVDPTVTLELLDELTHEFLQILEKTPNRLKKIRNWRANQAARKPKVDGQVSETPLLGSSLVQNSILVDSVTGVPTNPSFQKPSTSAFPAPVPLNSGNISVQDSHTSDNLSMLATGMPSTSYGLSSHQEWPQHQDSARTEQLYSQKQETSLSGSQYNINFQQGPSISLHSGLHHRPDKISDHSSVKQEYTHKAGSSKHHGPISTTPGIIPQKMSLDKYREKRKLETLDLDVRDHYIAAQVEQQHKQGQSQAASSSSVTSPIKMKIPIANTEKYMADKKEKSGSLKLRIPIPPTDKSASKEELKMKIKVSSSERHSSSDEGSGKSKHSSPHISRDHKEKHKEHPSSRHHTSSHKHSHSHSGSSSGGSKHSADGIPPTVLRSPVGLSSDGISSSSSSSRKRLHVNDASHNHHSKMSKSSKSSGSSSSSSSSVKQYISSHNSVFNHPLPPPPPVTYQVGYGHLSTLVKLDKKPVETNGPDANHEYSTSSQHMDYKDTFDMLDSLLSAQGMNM
UniProt Q9UK58: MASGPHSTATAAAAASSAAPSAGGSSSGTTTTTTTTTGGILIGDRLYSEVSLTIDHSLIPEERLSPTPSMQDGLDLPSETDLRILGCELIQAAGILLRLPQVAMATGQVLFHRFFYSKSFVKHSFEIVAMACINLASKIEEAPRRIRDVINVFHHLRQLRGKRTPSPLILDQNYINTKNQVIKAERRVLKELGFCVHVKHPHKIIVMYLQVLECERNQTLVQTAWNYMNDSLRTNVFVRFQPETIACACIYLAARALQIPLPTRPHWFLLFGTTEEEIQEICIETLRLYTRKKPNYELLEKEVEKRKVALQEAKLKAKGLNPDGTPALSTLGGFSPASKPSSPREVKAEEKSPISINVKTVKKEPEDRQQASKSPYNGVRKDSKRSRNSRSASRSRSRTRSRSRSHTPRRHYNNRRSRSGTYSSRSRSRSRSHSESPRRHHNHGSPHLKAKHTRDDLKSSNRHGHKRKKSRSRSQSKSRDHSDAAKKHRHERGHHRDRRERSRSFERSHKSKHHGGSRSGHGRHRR
UniProt Q96EE4: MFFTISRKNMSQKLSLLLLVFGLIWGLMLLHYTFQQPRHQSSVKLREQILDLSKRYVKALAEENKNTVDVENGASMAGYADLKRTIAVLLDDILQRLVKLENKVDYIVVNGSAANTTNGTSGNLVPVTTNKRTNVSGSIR

Tests used:
Assay in all cases: log2 fold change, soluble protein after heating vs DMSO (PISA); higher = thermal stabilisation; K562 lysate, 10 uM; active = over 0.2 and 3.5 SD of the protein, either way, in both replicates (recomputed)
[1] = compound: CS(=O)(=O)CCNCc1ccc(-c2ccc3ncnc(Nc4ccc(OCc5cccc(F)c5)c(Cl)c4)c3c2)o1 [lapatinib]
Outline: (§1)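 Thermal stability, expressed as log-two fold change relative to solvent controls, is given from duplicates. Crude K562 extract in PBS pH 7.4 with 1 mM MgCl2, at 1 mg/mL protein, was treated with 10 μM compound for 30 min and heated in aliquots for 3 min across 48°C-58°C. After pooling, adjustment to 0.5% NP-40 at 4°C and centrifugation at 21,000xg for 90 min, supernatant protein was measured by TMTpro 16plex LC-MS/MS with channel sums equalised.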

[2] = compound: CS(=O)(=O)N1CCN(Cc2cc3nc(-c4cccc5[nH]ncc45)nc(N4CCOCC4)c3s2)CC1 [pictilisib]
Outline: as §1

[3] = compound: C[C@@H](Oc1cc(-c2cnn(C3CCNCC3)c2)cnc1N)c1c(Cl)ccc(F)c1Cl [crizotinib]
Outline: as §1

[4] = compound: C[C@H](C1=CC=C(C=C1)C(=O)NC2=C3C=CNC3=NC=C2)N
Outline: as §1

[5] = compound: C[C@H](Nc1ncnc2nc[nH]c12)c1cc2cccc(Cl)c2c(=O)n1-c1ccccc1 [duvelisib]
Outline: as §1

[6] = compound: Cc1cc(Nc2cc(CN3CCOCC3)c3nc(C)c(Cc4ccc(Cl)cc4F)n3n2)n[nH]1 [gandotinib]
Outline: as §1

[7] = compound: Cc1cc(Nc2cc(N3CCN(C)CC3)nc(Sc3ccc(NC(=O)C4CC4)cc3)n2)n[nH]1 [tozasertib]
Outline: as §1

[8] = compound: Cc1ccc(-n2nc(C(C)(C)C)cc2NC(=O)Nc2ccc(OCCN3CCOCC3)c3ccccc23)cc1 [doramapimod]
Outline: as §1

[9] = compound: Cc1ccc(NC(=O)c2ccc(CN3CC[C@H](N(C)C)C3)c(C(F)(F)F)c2)cc1Nc1nccc(-c2cncnc2)n1 [bafetinib]
Outline: as §1

[10] = compound: Cc1cccc(CC(=O)N2CCc3c2ccc(-c2cn(C)c4ncnc(N)c24)c3F)n1
Outline: as §1

[11] = compound: Cc1nc(Nc2ncc(C(=O)Nc3c(C)cccc3Cl)s2)cc(N2CCN(CCO)CC2)n1 [dasatinib]
Outline: as §1

[12] = compound: Cn1cc(-c2ccc3c(c2)CCN3C(=O)Cc2cccc(C(F)(F)F)c2)c2c(N)ncnc21
Outline: as §1

[13] = compound: Cn1cc(CNCC2CCN(c3ncc(C(=O)NO)cn3)CC2)c2ccccc21 [quisinostat]
Outline: as §1

[14] = compound: NC(=O)Nc1cc(-c2cccc(F)c2)sc1C(=O)N[C@H]1CCCNC1
Outline: as §1

[15] = compound: NC(=O)c1cnc(N[C@@H]2CCCC[C@@H]2N)nc1Nc1cccc(-n2nccn2)c1
Outline: as §1

[16] = compound: NC1(c2ccc(-c3nc4ccn5c(=O)[nH]nc5c4cc3-c3ccccc3)cc2)CCC1
Outline: as §1

[17] = compound: Cc1cn(-c2cc(NC(=O)c3ccc(C)c(Nc4nccc(-c5cccnc5)n4)c3)cc(C(F)(F)F)c2)cn1 [nilotinib]
Outline: as §1

[18] = compound: Cc1nc(Nc2n[nH]c3c2CN(C(=O)N[C@H](CN(C)C)c2ccccc2)C3(C)C)c2sccc2n1
Outline: as §1

[19] = compound: Cc1ncc(-c2ccnc(Nc3ccc(S(C)(=O)=O)cc3)n2)n1C(C)C
Outline: as §1

[20] = compound: Cn1cncc1[C@@](N)(c1ccc(Cl)cc1)c1ccc2c(c1)c(-c1cccc(Cl)c1)cc(=O)n2C [tipifarnib]
Outline: as §1

Measured: log2 fold change

CCDC127 (UniProt Q96BQ5)
inactive: [1] 0.044 | [2] 0.005 | [3] 0.057 | [4] 0 | [5] 0.076 | [6] 0.11 | [7] 0.089 | [8] 0.074 | [9] -0.091 | [10] 0.082 | [11] -0.001 | [12] 0.004 | [13] 0.035 | [14] -0.029 | [15] 0.039 | [16] -0.008

CCT3 (UniProt E9PM09)
inactive: [1] -0.04 | [2] -0.157 | [5] 0.016 | [7] 0.375 | [9] -0.23 | [17] 0.08 | [18] -0.129 | [11] 0.01 | [19] 0.238 | [12] 0.318 | [20] 0.037 | [15] -0.061 | [16] 0.277

CCND2 (UniProt P30279)
inactive: [1] 0.082 | [2] -0.074 | [3] 0.024 | [5] 0.059 | [8] -0.023 | [9] 0 | [17] 0.094 | [18] -0.001 | [11] 0.015 | [19] -0.081 | [12] 0.069 | [13] -0.03 | [20] 0.028 | [14] 0.044 | [15] 0.017 | [16] -0.078

CCND3 (UniProt P30281)
inactive: [2] -0.01 | [3] -0.083 | [4] -0.175 | [5] 0.015 | [6] -0.022 | [7] 0.073 | [8] 0.101 | [9] 0.003 | [10] 0.096 | [17] -0.061 | [18] -0.015 | [11] -0.08 | [19] 0.042 | [12] 0.137 | [13] -0.05 | [20] -0.062 | [14] -0.003 | [16] -0.057

CCNT2 (UniProt O60583)
inactive: [1] 0.094 | [2] -0.04 | [3] 0.066 | [5] -0.078 | [7] 0.055 | [8] -0.038 | [9] -0.011 | [17] -0.165 | [18] -0.131 | [11] 0.066 | [19] 0.114 | [12] 0.037 | [13] 0 | [20] -0.053 | [14] 0.141 | [15] 0.105

CCNL1 (UniProt Q9UK58)
inactive: [1] -0.002 | [3] -0.062 | [4] -0.075 | [6] 0.065 | [7] 0.047 | [8] -0.024 | [10] 0.053 | [17] -0.069 | [18] 0.066 | [19] -0.023 | [13] 0.033 | [20] 0.031 | [14] 0.009 | [15] 0.033

CCDC126 (UniProt Q96EE4)
inactive: [3] -0.078 | [8] 0.156 | [13] -0.115 | [14] -0.014 | [16] -0.057

CBX3 (UniProt B8ZZ43)
inactive: [3] 0.152 | [4] -0.025 | [6] 0.18 | [8] -0.011 | [10] -0.197 | [17] 0.064 | [18] -0.102 | [19] -0.178 | [13] 0.005 | [20] 0.327 | [14] -0.063
